The assay deals with GST-tagged murine AOC3, secretable form (GST-AOC3) (mouse) (UniProt O70423). The experiment in a line: pull-down.

Protein sequences, listed by entry. Tags and fused reporters are not part of them. Lines headed by an entry give the natural chain unless they say otherwise; changes in a name come on top. Residues count along the entry.
UniProt O70423: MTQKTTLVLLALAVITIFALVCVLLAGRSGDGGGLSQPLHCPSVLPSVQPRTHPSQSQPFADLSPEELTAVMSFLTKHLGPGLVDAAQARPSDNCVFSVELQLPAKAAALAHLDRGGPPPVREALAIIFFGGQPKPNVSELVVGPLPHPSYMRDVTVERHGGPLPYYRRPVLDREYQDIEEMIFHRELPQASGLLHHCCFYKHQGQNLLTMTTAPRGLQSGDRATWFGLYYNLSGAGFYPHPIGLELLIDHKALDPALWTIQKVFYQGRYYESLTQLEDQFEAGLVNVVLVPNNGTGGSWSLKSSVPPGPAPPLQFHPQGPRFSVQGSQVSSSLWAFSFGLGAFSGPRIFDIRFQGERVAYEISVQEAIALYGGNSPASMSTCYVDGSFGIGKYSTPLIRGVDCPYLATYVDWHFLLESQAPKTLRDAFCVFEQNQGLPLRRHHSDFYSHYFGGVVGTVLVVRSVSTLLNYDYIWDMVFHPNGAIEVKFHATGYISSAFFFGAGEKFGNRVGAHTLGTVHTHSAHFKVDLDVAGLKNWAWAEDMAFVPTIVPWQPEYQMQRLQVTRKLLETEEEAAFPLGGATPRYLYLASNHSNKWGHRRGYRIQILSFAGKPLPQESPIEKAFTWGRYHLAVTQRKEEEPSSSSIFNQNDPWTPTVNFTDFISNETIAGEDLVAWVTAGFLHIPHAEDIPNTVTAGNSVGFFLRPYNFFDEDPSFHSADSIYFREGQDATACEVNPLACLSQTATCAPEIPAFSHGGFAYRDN
UniProt Q64726, residues 18-307: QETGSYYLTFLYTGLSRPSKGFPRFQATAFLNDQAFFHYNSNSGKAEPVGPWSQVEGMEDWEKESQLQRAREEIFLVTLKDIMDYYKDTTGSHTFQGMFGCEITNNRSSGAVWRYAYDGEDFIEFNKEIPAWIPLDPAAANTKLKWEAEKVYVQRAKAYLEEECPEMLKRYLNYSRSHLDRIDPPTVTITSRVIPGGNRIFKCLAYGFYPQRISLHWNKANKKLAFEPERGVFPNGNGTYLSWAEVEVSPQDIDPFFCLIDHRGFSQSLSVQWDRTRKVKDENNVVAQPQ

These are yes or no findings as the source states them, for the method shown. In cells and extracts the contact can be indirect. Binding can be weak; no strength is given.

Turning to “murine plasma zinc-α2-glycoprotein (ZAG), endogenous (from UniProt Q64726 18-307)”, the binding result is “binds”.

Values taken from doi:10.1101/727214.
